The supplement of paper PMC8728848
Some of the results follow.

How the values were obtained:
Assay in all cases: glycan array binding signal (z-score within array); higher = stronger binding
Details in all cases: glycan notation: IUPAC condensed, linker removed
GalNAc(b1-6)GalNAc = target: GalNAc(b1-6)GalNAc
Outline: (§1)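 Negative Z-scores can be read as non-binding. The Z-score is calculated within each array and then averaged across arrays of one protein sequence at different concentrations or buffers and across linkers. Arrays, 3228 in all, were curated from the Consortium for Functional Glycomics database and kept only where the protein sequence was available.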

Glc(a1-4)Glc = target: Glc(a1-4)Glc
Outline: as §1

[1] = target: Glc(a1-4)Glc(a1-4)Glc(a1-4)Glc
Outline: as §1

Glc(a1-6)Glc(a1-6)Glc = target: Glc(a1-6)Glc(a1-6)Glc
Outline: as §1

[2] = target: Glc(a1-6)Glc(a1-6)Glc(a1-6)Glc
Outline: as §1

Glc(b1-4)Glc = target: Glc(b1-4)Glc
Outline: as §1

Glc(b1-6)Glc = target: Glc(b1-6)Glc
Outline: as §1

GlcA(b1-3)Gal = target: GlcA(b1-3)Gal
Outline: as §1

GlcA(b1-3)GlcNAc = target: GlcA(b1-3)GlcNAc
Outline: as §1

GlcA(b1-6)Gal = target: GlcA(b1-6)Gal
Outline: as §1

[3] = target: GlcNAc(a1-3)Gal(b1-4)GlcNAc
Outline: as §1

[4] = target: GlcNAc(a1-4)Gal(b1-3)GlcNAc
Outline: as §1

[5] = target: GlcNAc(a1-4)Gal(b1-4)GalNAc
Outline: as §1

[6] = target: GlcNAc(a1-4)Gal(b1-4)GlcNAc
Outline: as §1

[7] = target: GlcNAc(a1-4)Gal(b1-4)GlcNAc(b1-3)Gal(b1-4)Glc
Outline: as §1

[8] = target: GlcNAc(a1-4)Gal(b1-4)GlcNAc(b1-3)Gal(b1-4)GlcNAc
Outline: as §1

[9] = target: GlcNAc(a1-4)Gal(b1-4)GlcNAc(b1-3)Gal(b1-4)GlcNAc(b1-3)Gal(b1-4)GlcNAc
Outline: as §1

[10] = target: GlcNAc(a1-4)Gal(b1-4)GlcNAc(b1-3)Gal(b1-4)[Fuc(a1-3)]GlcNAc(b1-3)Gal(b1-4)[Fuc(a1-3)]GlcNAc
Outline: as §1

[11] = target: GlcNAc(a1-6)Gal(b1-4)GlcNAc
Outline: as §1

[12] = target: GlcNAc(b1-2)Gal(b1-3)GalNAc
Outline: as §1

[13] = target: GlcNAc(b1-2)Man(a1-3)[GlcNAc(b1-2)Man(a1-6)]Man(b1-4)GlcNAc(b1-4)GlcNAc
Outline: as §1

[14] = target: GlcNAc(b1-2)Man(a1-3)[GlcNAc(b1-2)Man(a1-6)]Man(b1-4)GlcNAc(b1-4)[Fuc(a1-6)]GlcNAc
Outline: as §1

[15] = target: GlcNAc(b1-2)Man(a1-3)[GlcNAc(b1-4)][GlcNAc(b1-2)Man(a1-6)]Man(b1-4)GlcNAc(b1-4)GlcNAc
Outline: as §1

[16] = target: GlcNAc(b1-2)[GlcNAc(b1-4)]Man(a1-3)[GlcNAc(b1-2)Man(a1-6)]Man(b1-4)GlcNAc(b1-4)GlcNAc
Outline: as §1

[17] = target: GlcNAc(b1-2)[GlcNAc(b1-4)]Man(a1-3)[GlcNAc(b1-4)][GlcNAc(b1-2)Man(a1-6)]Man(b1-4)GlcNAc(b1-4)GlcNAc
Outline: as §1

[18] = target: GlcNAc(b1-2)[GlcNAc(b1-4)]Man(a1-3)[GlcNAc(b1-4)][GlcNAc(b1-2)[GlcNAc(b1-6)]Man(a1-6)]Man(b1-4)GlcNAc(b1-4)GlcNAc
Outline: as §1

[19] = target: GlcNAc(b1-2)[GlcNAc(b1-6)]Man(a1-6)[GlcNAc(b1-2)Man(a1-3)]Man(b1-4)GlcNAc(b1-4)GlcNAc
Outline: as §1

[20] = target: GlcNAc(b1-2)[GlcNAc(b1-6)]Man(a1-6)[GlcNAc(b1-2)Man(a1-3)][GlcNAc(b1-4)]Man(b1-4)GlcNAc(b1-4)GlcNAc
Outline: as §1

GlcNAc(b1-3)Gal = target: GlcNAc(b1-3)Gal
Outline: as §1

[21] = target: GlcNAc(b1-3)Gal(b1-3)GalNAc
Outline: as §1

GlcNAc(b1-3)Gal(b1-4)Glc = target: GlcNAc(b1-3)Gal(b1-4)Glc
Outline: as §1

[22] = target: GlcNAc(b1-3)Gal(b1-4)GlcNAc
Outline: as §1

[23] = target: GlcNAc(b1-3)Gal(b1-4)GlcNAc(b1-3)Gal(b1-4)GlcNAc
Outline: as §1

GlcNAc(b1-3)GalNAc = target: GlcNAc(b1-3)GalNAc
Outline: as §1

GlcNAc(b1-3)Man = target: GlcNAc(b1-3)Man
Outline: as §1

[24] = target: GlcNAc(b1-3)[GlcNAc(b1-4)][GlcNAc(b1-6)]GlcNAc
Outline: as §1

[25] = target: GlcNAc(b1-3)[GlcNAc(b1-6)]Gal(b1-4)GlcNAc
Outline: as §1

[26] = target: GlcNAc(b1-3)[GlcNAc(b1-6)]GalNAc
Outline: as §1

[27] = target: GlcNAc(b1-4)Gal(b1-4)GlcNAc
Outline: as §1

GlcNAc(b1-4)GlcNAc = target: GlcNAc(b1-4)GlcNAc
Outline: as §1

B1: DCL-1 (Homo sapiens), Q8IX05 (protein)
chain: MLRAALPALLLPLLGLAAAAVADCPSSTWIQFQDSCYIFLQEAIKVESIEDVRNQCTDHGADMISIHNEEENAFILDTLKKQWKGPDDILLGMFYDTDDASFKWFDNSNMTFDKWTDQDDDEDLVDTCAFLHIKTGEWKKGNCEVSSVEGTLCKTAIPYKRKYLSDNHILISALVIASTVILTVLGAIIWFLYKKHSDSRFTTVFSTAPQSPYNEDCVLVVGEENEYPVQFD
glycan array binding signal (z-score) (GalNAc(b1-6)GalNAc): 0.054
glycan array binding signal (z-score) (Glc(a1-4)Glc): -0.28
glycan array binding signal (z-score) [1]: -0.87
glycan array binding signal (z-score) (Glc(a1-6)Glc(a1-6)Glc): -0.939
glycan array binding signal (z-score) [2]: -0.88
glycan array binding signal (z-score) (Glc(b1-4)Glc): -0.786
glycan array binding signal (z-score) (Glc(b1-6)Glc): -0.407
glycan array binding signal (z-score) (GlcA(b1-3)Gal): 1.13
glycan array binding signal (z-score) (GlcA(b1-3)GlcNAc): 0.61
glycan array binding signal (z-score) (GlcA(b1-6)Gal): 0.164
glycan array binding signal (z-score) [3]: -0.232
glycan array binding signal (z-score) [4]: -0.592
glycan array binding signal (z-score) [5]: 0.819
glycan array binding signal (z-score) [6]: -0.806
glycan array binding signal (z-score) [7]: 0.365
glycan array binding signal (z-score) [8]: 0.345
glycan array binding signal (z-score) [9]: 0.531
glycan array binding signal (z-score) [10]: 0.712
glycan array binding signal (z-score) [11]: 6.83
glycan array binding signal (z-score) [12]: 0.336
glycan array binding signal (z-score) [13]: -0.211
glycan array binding signal (z-score) [14]: 0.697
glycan array binding signal (z-score) [15]: -0.657
glycan array binding signal (z-score) [16]: 0.255
glycan array binding signal (z-score) [17]: -0.455
glycan array binding signal (z-score) [18]: 0.126
glycan array binding signal (z-score) [19]: -0.26
glycan array binding signal (z-score) [20]: -0.098
glycan array binding signal (z-score) (GlcNAc(b1-3)Gal): -0.319
glycan array binding signal (z-score) [21]: -0.259
glycan array binding signal (z-score) (GlcNAc(b1-3)Gal(b1-4)Glc): -1.25
glycan array binding signal (z-score) [22]: -0.305
glycan array binding signal (z-score) [23]: -0.074
glycan array binding signal (z-score) (GlcNAc(b1-3)GalNAc): -0.013
glycan array binding signal (z-score) (GlcNAc(b1-3)Man): -0.813
glycan array binding signal (z-score) [24]: -0.42
glycan array binding signal (z-score) [25]: -1.34
glycan array binding signal (z-score) [26]: 0.07
glycan array binding signal (z-score) [27]: -0.427
glycan array binding signal (z-score) (GlcNAc(b1-4)GlcNAc): -0.726
